Results are given in words; binding and its absence hold for the method and conditions named. In cells and extracts the contact can be indirect. Some binding calls cover weakened binding; strength is not graded here. Sequences can lack the tags named with a protein.
Assays:
[1] = molecular target: GST–LL1 (RyR2 first luminal loop, residues 4521–4573) (human) (UniProt Q92736); assay: pull-down; purified GST-fusion protein (1 µM) captured on glutathione Sepharose, incubated with CHAPS-solubilised HEK293 lysate expressing HA–CSQ2; immunoblot with anti-HA; only the target purified
[2] = molecular target: recombinant human RyR2 expressed in HEK293 cells (human) (UniProt Q92736); assay: co-IP; reverse experiment: RyR2 immunoprecipitated with Ab1093 from lysates of HEK293 cells co-expressing HA–CSQ2; HA–CSQ2 detected by immunoblot

By UniProt entry, the sequences of proteins in these tests, tags left out. Where a name states a change or a piece, a line headed by the entry shows the natural chain unless it says otherwise. Residues count along the entry.
UniProt Q92736: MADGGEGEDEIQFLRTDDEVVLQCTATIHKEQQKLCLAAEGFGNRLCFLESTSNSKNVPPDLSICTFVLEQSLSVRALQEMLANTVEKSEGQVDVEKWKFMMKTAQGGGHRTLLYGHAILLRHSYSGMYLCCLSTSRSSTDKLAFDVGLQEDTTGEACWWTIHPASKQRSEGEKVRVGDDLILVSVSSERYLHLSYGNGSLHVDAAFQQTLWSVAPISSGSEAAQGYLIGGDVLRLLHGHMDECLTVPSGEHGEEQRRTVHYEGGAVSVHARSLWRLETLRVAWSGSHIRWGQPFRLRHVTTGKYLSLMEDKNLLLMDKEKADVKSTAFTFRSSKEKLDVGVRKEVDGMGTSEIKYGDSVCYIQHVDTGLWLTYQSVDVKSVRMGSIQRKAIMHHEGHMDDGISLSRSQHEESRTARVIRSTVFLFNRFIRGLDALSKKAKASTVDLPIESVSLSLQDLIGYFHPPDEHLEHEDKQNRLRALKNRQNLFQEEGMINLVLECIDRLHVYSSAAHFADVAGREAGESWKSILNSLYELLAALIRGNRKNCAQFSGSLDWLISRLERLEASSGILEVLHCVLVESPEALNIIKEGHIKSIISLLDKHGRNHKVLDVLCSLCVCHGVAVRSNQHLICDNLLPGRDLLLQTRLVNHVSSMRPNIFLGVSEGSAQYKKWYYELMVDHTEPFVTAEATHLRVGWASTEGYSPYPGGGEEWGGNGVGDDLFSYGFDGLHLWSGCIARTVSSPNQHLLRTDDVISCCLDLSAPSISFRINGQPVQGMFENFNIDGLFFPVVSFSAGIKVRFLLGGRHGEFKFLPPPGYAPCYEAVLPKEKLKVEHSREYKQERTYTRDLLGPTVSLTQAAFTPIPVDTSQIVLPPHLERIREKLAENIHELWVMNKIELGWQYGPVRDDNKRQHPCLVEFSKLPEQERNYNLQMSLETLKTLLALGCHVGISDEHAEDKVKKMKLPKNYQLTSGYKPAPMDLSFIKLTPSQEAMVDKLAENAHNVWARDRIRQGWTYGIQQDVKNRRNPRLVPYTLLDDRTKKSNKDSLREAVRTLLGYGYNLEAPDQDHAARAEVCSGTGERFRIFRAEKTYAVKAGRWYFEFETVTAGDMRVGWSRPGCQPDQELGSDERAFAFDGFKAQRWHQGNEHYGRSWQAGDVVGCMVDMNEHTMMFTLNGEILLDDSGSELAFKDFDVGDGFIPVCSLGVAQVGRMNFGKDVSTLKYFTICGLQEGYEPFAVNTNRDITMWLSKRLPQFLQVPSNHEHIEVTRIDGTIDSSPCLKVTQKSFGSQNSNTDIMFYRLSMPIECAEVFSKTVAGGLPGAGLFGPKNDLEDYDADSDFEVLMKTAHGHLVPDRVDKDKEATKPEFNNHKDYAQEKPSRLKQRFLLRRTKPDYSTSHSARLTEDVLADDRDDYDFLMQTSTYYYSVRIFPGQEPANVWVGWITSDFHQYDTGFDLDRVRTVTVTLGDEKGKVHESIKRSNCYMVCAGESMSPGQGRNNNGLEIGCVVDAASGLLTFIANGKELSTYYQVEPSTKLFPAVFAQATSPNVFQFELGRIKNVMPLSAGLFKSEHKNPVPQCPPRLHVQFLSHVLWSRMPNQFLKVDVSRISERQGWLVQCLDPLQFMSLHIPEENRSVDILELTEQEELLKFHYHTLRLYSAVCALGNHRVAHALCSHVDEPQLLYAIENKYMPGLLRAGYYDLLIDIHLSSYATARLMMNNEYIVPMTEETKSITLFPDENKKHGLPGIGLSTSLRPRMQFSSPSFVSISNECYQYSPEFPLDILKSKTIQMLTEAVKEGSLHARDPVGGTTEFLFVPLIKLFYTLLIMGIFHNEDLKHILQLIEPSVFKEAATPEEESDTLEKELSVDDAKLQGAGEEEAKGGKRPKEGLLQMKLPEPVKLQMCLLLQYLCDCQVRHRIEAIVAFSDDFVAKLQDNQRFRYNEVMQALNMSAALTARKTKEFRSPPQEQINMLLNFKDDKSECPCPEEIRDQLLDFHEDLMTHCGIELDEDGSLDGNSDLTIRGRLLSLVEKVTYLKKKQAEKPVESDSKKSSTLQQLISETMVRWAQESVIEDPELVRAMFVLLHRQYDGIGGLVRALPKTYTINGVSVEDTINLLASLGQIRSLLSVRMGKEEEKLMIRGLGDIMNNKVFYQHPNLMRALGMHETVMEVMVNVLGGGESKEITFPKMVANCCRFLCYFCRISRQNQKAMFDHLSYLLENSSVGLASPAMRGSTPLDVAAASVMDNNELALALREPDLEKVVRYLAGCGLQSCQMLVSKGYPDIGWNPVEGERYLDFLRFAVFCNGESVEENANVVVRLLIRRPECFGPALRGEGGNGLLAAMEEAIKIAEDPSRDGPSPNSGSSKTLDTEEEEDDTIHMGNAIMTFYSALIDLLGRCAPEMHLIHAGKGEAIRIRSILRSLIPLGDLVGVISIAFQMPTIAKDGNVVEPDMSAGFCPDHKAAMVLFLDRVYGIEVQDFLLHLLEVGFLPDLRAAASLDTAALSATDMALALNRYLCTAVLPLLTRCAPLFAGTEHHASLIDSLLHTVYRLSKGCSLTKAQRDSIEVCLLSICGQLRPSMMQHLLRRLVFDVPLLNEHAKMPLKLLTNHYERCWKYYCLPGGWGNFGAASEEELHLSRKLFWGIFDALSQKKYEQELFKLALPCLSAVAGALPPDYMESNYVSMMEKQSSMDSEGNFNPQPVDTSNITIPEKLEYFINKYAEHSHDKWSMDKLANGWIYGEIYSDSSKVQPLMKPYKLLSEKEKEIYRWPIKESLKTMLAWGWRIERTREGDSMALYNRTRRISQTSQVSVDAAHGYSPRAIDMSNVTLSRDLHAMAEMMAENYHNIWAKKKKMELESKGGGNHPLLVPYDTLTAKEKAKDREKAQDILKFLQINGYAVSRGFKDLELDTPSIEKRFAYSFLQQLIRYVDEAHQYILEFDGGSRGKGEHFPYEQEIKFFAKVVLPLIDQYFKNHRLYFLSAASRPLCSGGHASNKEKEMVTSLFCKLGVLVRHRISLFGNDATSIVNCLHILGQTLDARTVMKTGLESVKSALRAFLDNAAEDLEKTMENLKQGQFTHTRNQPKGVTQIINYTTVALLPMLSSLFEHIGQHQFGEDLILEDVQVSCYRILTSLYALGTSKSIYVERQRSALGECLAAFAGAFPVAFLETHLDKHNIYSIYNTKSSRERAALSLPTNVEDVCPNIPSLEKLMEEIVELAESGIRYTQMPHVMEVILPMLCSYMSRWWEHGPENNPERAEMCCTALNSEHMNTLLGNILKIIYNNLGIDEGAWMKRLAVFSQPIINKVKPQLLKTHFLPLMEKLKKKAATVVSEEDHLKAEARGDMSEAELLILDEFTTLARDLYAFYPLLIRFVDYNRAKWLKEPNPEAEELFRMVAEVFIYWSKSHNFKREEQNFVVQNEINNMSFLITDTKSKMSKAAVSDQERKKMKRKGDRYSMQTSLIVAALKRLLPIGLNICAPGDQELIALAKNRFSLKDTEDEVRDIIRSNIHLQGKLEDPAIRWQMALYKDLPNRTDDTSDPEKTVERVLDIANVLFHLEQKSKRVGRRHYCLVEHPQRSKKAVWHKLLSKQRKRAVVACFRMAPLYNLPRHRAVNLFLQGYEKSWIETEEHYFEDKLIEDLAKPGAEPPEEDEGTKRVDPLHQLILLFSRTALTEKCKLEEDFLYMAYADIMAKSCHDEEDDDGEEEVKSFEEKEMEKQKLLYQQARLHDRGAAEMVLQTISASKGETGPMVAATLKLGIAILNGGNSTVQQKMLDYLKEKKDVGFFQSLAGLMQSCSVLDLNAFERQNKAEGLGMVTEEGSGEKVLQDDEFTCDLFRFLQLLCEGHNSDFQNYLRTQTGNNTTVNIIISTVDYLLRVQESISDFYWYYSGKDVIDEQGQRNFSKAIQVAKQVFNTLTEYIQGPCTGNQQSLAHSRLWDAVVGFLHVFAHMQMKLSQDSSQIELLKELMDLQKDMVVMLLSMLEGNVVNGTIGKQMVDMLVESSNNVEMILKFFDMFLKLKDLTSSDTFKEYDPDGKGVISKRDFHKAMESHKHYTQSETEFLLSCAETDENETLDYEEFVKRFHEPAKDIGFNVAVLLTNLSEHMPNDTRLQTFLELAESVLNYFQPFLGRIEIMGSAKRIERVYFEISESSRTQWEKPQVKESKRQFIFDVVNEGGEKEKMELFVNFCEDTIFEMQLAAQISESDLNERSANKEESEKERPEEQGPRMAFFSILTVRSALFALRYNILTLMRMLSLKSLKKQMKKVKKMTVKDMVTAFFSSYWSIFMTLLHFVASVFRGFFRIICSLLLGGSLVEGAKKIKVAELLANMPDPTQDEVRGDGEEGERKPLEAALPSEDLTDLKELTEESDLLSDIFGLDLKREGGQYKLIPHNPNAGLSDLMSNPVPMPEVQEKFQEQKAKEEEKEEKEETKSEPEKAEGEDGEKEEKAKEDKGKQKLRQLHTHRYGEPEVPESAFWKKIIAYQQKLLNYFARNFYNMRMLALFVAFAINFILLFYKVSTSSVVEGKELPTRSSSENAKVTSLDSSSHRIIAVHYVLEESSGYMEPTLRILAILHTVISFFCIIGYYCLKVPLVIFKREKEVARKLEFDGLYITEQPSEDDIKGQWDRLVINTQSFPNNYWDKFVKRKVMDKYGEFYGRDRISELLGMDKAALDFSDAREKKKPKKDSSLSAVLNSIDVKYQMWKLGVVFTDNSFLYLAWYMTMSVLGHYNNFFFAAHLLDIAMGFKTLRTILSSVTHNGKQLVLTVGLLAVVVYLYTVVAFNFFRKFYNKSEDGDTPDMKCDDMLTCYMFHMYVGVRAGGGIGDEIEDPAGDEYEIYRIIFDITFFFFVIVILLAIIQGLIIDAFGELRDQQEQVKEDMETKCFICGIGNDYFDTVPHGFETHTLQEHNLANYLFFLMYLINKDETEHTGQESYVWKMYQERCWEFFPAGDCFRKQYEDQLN
GST–LL1 (RyR2 first luminal loop, residues 4521–4573): residues 4521-4573 of Q92736

B1: HA–CSQ2 (hemagglutinin-tagged human calsequestrin 2) (protein, UniProt O14958 20-399)
chain: EEGLNFPTYDGKDRVVSLSEKNFKQVLKKYDLLCLYYHEPVSSDKVTQKQFQLKEIVLELVAQVLEHKAIGFVMVDAKKEAKLAKKLGFDEEGSLYILKGDRTIEFDGEFAADVLVEFLLDLIEDPVEIISSKLEVQAFERIEDYIKLIGFFKSEDSEYYKAFEEAAEHFQPYIKFFATFDKGVAKKLSLKMNEVDFYEPFMDEPIAIPNKPYTEEELVEFVKEHQRPTLRRLRPEEMFETWEDDLNGIHIVAFAEKSDPDGYEFLEILKQVARDNTDNPDLSILWIDPDDFPLLVAYWEKTFKIDLFRPQIGVVNVTDADSVWMEIPDDDDLPTAEELEDWIEDVLSGKINTEDDDEDDDDDDNSDEEDNDDSDDDDDE
binding [1]: binds
binding [2]: binds

Reference: article PMC5117208
